At least one compound was matched to its structure with a doubt left.
Experiment: clinical observations during pelvic radiation for prostate carcinoma
Type: in vivo, patients
From the text: The present invention originated with observations made during pelvic radiation for prostate carcinoma.

Cc1ccc(-c2cc(C(F)(F)F)nn2-c2ccc(S(N)(=O)=O)cc2)cc1 [Celebrex, celecoxib]
fatigue associated with radiotherapy: decrease | acute mucosal effects of radiation (urinary and gastrointestinal tracts, during radiotherapy): decrease the acute mucosal effects of radiation

From patent US20020035139A1, “COX-2 inhibitors and the prevention of the side effects of radiation therapy” (priority 2000, published 2002)
